Source: the supplement of paper PMC10849652
This is one part of the list.

Amino acid sequences for entries named in this document (tags omitted). A change or cut given only in a name is not applied to a line headed by its entry.
UniProt P46736, whole entry, looked up: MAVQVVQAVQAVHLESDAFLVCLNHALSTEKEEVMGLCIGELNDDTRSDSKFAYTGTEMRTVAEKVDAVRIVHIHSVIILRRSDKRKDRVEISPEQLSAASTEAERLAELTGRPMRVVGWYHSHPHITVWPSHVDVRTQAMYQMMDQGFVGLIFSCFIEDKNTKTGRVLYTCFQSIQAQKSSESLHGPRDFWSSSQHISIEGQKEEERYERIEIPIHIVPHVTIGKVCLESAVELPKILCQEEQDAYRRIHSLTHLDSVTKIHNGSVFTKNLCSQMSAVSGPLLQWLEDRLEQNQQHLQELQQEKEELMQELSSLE
UniProt Q6QNY1: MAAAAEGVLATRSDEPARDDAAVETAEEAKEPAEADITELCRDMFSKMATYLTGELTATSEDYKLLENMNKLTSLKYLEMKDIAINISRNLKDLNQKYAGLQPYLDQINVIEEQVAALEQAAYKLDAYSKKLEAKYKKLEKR
UniProt P15291: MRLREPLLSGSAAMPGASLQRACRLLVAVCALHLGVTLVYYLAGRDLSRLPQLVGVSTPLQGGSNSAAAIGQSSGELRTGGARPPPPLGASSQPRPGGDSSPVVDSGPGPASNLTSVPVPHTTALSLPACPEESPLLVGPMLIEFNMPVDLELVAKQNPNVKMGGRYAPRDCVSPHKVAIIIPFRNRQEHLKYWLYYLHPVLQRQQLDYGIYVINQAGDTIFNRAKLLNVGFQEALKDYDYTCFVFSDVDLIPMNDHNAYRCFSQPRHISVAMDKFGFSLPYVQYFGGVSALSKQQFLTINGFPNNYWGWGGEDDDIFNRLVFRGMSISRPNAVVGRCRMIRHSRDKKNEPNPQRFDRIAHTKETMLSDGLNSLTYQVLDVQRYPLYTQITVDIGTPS
UniProt Q99933: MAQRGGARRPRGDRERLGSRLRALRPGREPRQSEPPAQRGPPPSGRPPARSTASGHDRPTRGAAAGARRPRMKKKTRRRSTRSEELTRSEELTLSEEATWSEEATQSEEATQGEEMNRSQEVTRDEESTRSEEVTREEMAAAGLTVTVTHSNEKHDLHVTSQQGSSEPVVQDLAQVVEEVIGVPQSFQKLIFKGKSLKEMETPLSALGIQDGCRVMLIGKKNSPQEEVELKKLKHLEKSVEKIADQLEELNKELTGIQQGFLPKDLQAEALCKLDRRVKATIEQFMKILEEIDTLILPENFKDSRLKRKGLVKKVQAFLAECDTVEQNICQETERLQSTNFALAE
UniProt Q8NFC6: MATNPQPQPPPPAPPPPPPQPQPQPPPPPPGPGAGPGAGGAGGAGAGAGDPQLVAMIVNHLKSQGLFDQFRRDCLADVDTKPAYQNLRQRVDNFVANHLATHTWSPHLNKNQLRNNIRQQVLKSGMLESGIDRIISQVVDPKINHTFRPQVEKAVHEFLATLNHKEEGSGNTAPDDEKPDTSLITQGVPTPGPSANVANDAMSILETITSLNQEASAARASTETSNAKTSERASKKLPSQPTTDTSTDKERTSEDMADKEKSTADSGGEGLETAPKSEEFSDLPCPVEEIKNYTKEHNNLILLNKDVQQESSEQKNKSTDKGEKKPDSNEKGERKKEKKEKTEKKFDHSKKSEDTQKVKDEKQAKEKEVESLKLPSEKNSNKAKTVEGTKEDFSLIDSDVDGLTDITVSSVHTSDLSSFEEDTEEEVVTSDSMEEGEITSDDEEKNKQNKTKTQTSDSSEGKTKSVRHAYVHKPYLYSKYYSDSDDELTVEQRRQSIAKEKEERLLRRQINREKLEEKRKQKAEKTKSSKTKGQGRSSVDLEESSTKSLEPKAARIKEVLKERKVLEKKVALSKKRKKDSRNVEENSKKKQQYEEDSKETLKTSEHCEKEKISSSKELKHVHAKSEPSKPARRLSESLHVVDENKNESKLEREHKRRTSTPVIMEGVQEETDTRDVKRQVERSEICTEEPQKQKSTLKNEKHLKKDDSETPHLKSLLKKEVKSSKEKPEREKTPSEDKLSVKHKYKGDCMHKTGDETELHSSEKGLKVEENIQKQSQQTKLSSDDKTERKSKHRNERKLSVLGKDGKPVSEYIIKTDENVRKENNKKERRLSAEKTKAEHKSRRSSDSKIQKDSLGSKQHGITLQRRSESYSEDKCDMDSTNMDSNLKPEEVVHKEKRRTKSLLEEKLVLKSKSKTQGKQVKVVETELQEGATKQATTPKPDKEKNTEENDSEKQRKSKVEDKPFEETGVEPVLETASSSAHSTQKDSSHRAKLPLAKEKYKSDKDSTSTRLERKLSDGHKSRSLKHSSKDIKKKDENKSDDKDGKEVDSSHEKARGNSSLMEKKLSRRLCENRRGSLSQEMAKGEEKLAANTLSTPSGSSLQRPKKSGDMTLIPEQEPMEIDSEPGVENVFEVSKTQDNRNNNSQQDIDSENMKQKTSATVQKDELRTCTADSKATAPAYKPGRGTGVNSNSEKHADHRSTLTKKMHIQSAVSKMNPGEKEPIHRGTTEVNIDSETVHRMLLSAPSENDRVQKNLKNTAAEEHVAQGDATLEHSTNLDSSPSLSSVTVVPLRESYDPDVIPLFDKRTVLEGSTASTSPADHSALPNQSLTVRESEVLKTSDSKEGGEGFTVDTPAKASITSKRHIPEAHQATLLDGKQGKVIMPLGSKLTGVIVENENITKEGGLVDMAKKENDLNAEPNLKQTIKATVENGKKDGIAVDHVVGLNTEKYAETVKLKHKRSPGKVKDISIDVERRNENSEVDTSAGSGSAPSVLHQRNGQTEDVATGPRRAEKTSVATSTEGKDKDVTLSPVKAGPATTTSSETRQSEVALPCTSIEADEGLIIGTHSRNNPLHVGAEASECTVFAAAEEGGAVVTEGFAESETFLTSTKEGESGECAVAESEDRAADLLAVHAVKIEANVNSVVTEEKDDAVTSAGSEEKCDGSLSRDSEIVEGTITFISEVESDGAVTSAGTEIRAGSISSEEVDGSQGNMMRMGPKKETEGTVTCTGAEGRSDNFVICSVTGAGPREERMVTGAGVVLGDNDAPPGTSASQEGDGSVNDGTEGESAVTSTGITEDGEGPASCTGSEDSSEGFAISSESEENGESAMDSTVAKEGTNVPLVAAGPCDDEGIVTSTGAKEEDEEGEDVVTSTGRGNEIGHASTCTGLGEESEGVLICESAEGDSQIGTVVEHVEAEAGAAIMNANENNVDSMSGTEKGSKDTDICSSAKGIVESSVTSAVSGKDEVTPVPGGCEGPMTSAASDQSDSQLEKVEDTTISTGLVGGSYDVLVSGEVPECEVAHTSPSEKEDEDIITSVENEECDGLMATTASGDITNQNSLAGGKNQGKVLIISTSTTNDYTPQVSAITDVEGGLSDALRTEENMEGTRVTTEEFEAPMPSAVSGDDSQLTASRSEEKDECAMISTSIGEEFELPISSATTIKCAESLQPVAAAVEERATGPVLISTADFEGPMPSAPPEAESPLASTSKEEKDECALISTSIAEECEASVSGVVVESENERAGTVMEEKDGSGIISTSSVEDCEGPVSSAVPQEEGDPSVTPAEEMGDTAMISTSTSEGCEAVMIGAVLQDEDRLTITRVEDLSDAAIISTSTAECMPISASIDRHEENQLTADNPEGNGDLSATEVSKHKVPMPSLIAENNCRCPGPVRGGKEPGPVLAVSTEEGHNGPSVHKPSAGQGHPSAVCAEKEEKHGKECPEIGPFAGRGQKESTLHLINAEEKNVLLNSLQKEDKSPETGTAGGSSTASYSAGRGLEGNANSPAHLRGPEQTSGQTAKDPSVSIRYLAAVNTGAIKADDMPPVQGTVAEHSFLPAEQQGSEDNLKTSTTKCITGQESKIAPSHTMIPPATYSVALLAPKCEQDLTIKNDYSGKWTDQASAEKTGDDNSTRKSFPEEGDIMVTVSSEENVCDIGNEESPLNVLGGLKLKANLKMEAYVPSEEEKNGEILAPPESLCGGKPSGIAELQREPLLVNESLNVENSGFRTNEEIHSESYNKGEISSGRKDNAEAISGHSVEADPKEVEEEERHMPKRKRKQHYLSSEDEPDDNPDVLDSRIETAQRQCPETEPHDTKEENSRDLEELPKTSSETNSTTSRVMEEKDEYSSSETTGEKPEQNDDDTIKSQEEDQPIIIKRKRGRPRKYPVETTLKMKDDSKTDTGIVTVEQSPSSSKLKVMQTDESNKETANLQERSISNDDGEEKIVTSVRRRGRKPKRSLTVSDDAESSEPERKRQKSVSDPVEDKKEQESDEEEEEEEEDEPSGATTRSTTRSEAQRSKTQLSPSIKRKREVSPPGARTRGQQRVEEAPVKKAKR
UniProt Q13867: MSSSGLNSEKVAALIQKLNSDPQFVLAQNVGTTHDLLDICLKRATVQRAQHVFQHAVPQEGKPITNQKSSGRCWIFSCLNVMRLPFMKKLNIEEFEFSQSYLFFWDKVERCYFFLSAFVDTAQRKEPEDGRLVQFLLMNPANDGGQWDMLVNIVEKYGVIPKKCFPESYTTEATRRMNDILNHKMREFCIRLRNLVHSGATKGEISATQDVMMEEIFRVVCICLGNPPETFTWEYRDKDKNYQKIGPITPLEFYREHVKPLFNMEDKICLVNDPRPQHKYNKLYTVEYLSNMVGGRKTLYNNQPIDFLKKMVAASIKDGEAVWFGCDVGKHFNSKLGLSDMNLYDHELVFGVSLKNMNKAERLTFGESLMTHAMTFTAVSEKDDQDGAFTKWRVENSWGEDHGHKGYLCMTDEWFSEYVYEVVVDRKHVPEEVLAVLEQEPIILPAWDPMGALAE
UniProt O15382: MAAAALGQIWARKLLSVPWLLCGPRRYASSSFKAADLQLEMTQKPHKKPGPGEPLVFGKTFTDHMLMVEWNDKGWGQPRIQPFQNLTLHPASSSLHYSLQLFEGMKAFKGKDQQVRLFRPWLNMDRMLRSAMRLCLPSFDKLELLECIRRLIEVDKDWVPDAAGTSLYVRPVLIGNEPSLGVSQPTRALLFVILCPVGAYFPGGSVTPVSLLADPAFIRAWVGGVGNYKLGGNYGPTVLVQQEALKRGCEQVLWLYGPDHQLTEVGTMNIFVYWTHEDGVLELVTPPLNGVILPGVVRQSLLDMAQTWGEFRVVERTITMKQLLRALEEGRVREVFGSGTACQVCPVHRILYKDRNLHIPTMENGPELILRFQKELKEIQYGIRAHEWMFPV

What was measured:
Assay in all cases: log2 fold change, soluble protein after heating vs DMSO (PISA); higher = thermal stabilisation; K562 lysate, 10 uM; active = over 0.2 and 3.5 SD of the protein, either way, in both replicates (recomputed)
[1] = compound: NCC(=O)Nc1ccc(-n2nc(C(F)(F)F)cc2-c2ccc3c(ccc4ccccc43)c2)cc1
How it was run: (§1)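 Thermal stability, expressed as log-two fold change relative to solvent controls, is given from duplicates. Crude K562 extract in PBS pH 7.4 with 1 mM MgCl2, at 1 mg/mL protein, was treated with 10 μM compound for 30 min and heated in aliquots for 3 min across 48°C-58°C. After pooling, adjustment to 0.5% NP-40 at 4°C and centrifugation at 21,000xg for 90 min, supernatant protein was measured by TMTpro 16plex LC-MS/MS with channel sums equalised.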

[2] = compound: O=C(CCCCCCC(=O)Nc1ccccc1)NO [vorinostat]
How it was run: as §1

[3] = compound: O=C(O)c1ccc2c(c1)nc(Nc1cccc(Cl)c1)c1ccncc12 [silmitasertib]
How it was run: as §1

[4] = compound: O=C1NC(=O)C(c2cnc3ccccn23)=C1c1cn2c3c(cc(F)cc13)CN(C(=O)N1CCCCC1)CC2
How it was run: as §1

[5] = compound: c1cn2cc(-c3ccc4cn[nH]c4c3)nc(Nc3ccc(N4CCOCC4)cc3)c2n1 [entospletinib]
How it was run: as §1

Measured: log2 fold change

BIRC6 (UniProt Q9NR09)
inactive: [1] -0.011 | [2] -0.07 | [3] 0.049 | [4] 0 | [5] -0.005

BRCC3 (UniProt P46736)
inactive: [1] -0.033 | [2] 0.081 | [3] 0.01 | [4] 0.044 | [5] 0.019

BLOC1S2 (UniProt Q6QNY1)
inactive: [1] 0.062 | [2] 0.114 | [3] -0.052 | [4] -0.11 | [5] -0.034

B4GALT1 (UniProt P15291)
inactive: [1] 0 | [2] 0.134 | [3] -0.081 | [4] -0.023 | [5] -0.001

BAG1 (UniProt Q99933)
inactive: [1] -0.003 | [2] 0.019 | [3] 0.003 | [4] 0.022 | [5] 0.025

BOD1L1 (UniProt Q8NFC6)
inactive: [1] 0.016 | [2] 0.013 | [3] 0.001 | [4] 0.011 | [5] -0.009

BRD4 (UniProt O60885)
inactive: [1] 0.01 | [2] -0.115 | [3] -0.011 | [4] -0.02 | [5] -0.028

BLMH (UniProt Q13867)
inactive: [1] -0.002 | [2] -0.014 | [3] 0.017 | [4] -0.023 | [5] -0.011

BCAT2 (UniProt O15382)
inactive: [1] 0.015 | [2] 0.162 | [3] -0.01 | [4] 0.014 | [5] 0.007
